Source: article PMC11898277
These are yes or no findings as the source states them, for the method shown. In cells and extracts the contact can be indirect. Some entries that bind do so weakly or less than the wild type.

Sequences of proteins named here, by UniProt entry; tags and fusion partners are left off. Residues count along the entry.
UniProt P29595, residues 1-76: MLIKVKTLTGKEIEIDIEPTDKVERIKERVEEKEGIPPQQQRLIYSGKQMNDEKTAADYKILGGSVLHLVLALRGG
UniProt Q80TT8: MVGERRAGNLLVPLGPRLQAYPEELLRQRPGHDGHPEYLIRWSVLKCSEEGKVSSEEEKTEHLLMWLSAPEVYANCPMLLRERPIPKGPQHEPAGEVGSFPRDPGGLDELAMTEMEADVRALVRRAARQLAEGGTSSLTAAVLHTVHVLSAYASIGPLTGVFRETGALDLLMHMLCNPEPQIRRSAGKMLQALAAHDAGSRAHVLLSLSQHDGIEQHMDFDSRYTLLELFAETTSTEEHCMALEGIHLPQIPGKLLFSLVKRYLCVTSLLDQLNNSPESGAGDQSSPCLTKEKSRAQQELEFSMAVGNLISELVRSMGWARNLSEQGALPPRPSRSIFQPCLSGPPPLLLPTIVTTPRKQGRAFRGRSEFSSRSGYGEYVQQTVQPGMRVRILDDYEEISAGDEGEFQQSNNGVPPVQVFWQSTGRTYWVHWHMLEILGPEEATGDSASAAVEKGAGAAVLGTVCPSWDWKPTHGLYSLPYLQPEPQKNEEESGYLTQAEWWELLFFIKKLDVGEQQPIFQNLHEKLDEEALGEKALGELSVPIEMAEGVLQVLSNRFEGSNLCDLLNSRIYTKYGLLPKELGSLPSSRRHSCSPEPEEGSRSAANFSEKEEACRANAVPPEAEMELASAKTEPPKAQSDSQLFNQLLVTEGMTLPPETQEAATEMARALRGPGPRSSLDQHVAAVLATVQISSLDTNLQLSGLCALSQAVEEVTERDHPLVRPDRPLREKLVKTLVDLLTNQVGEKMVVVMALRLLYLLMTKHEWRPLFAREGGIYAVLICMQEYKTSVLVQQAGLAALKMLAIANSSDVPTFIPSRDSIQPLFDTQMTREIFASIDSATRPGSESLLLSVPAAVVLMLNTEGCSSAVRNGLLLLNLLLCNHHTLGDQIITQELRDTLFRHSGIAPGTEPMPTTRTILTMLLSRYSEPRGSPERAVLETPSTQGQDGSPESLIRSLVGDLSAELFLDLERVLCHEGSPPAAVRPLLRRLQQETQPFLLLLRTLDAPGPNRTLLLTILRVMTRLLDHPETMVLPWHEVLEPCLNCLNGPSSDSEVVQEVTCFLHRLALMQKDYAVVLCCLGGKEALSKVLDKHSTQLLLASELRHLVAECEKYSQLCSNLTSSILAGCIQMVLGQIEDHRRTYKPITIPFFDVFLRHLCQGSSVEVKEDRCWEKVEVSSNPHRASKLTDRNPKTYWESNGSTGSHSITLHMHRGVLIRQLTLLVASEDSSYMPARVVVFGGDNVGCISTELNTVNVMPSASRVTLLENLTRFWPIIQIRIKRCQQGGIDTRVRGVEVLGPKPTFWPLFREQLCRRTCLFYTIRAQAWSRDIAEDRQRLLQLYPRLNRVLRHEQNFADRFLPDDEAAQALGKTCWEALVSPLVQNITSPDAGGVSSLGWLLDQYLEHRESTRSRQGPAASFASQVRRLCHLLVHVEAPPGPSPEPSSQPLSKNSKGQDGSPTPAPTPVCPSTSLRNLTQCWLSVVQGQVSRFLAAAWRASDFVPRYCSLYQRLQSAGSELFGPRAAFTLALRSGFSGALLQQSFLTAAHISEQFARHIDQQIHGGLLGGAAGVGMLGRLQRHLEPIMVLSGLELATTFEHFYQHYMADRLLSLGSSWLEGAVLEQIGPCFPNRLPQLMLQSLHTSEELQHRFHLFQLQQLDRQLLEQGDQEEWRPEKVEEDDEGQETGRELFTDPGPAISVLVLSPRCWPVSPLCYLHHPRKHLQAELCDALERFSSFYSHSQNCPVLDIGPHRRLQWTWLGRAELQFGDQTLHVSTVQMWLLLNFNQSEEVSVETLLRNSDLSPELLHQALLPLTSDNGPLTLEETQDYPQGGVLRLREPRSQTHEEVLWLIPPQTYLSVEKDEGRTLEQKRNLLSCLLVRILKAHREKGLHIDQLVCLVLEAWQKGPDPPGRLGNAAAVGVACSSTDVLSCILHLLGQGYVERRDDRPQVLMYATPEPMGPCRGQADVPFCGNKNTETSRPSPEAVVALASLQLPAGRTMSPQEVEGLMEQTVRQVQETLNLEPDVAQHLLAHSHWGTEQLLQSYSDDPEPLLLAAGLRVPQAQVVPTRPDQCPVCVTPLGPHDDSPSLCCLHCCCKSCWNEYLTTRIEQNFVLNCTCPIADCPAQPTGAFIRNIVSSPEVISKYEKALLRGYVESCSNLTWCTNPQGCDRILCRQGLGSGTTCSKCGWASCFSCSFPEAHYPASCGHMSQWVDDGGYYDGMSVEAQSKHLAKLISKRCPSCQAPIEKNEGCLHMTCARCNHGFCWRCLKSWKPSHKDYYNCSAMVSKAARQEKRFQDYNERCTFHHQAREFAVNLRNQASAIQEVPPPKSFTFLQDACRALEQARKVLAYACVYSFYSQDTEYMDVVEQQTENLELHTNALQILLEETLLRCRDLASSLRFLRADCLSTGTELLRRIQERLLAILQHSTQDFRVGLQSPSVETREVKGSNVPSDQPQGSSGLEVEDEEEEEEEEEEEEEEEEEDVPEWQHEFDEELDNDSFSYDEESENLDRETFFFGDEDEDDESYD

Target: Neural precursor cell-expressed developmentally down-regulated 8 (NEDD8) (mouse (endogenous in testis)) (UniProt P29595)
Assay: co-IP; testis extracts of adult mice; precipitation with NEDD8 antibody or IgG, Protein A beads, immunoblot

binding: binds
Substance: CUL9 (from UniProt Q80TT8 1-2530)
